In article PMC3808315:
Results are given in words; binding and its absence hold for the method and conditions named. A result given as binding can be weak or reduced; the word gives no strength. For part of these data: Sequences can lack the tags named with a protein.

B1: AtbZIP9 fused to the GAL4 activation domain (pAD-AtbZIP9) (protein, UniProt Q9FUD3 1-277)
chain: MDNHTAKDIGMKRSASELALQEYLTTSPLDPCFDLMNRDYTCELRDSLLWSEGLFPAGPFRDAQSSICENLSADSPVSANKPEVRGGVRRTTSGSSHVNSDDEDAETEAGQSEMTNDPNDLKRIRRMNSNRESAKRSRRRKQEYLVDLETQVDSLKGDNSTLYKQLIDATQQFRSAGTNNRVLKSDVETLRVKVKLAEDLVARGSLTSSLNQLLQTHLSPPSHSISSLHYTGNTSPAITVHSDQSLFPGMTLSGQNSSPGLGNVSSEAVSCVSDIWP
B2: AtbZIP10 fused to the GAL4 activation domain (pAD-AtbZIP10) (protein, UniProt O22763 1-411)
chain: MNSIFSIDDFSDPFWETPPIPLNPDSSKPVTADEVSQSQPEWTFEMFLEEISSSAVSSEPLGNNNNAIVGVSSAQSLPSVSGQNDFEDDSRFRDRDSGNLDCAAPMTTKTVIVDSDDYRRVLKNKLETECATVVSLRVGSVKPEDSTSSPETQLQPVQSSPLTQGELGVTSSLPAEVKKTGVSMKQVTSGSSREYSDDEDLDEENETTGSLKPEDVKKSRRMLSNRESARRSRRRKQEQTSDLETQVNDLKGEHSSLLKQLSNMNHKYDEAAVGNRILKADIETLRAKVKMAEETVKRVTGMNPMLLGRSSGHNNNNRMPITGNNRMDSSSIIPAYQPHSNLNHMSNQNIGIPTILPPRLGNNFAAPPSQTSSPLQRIRNGQNHHVTPSANPYGWNTEPQNDSAWPKKCVD
B3: AtbZIP25 fused to the GAL4 activation domain (pAD-AtbZIP25) (protein, UniProt Q9M1G6 1-403)
chain: MHIVFSVDDLTESFWPVPAPAPSPGSSSTPSPTQNVADGMTRSQSEWAFHRLINELSGSDSSPTTNTIERSPPPVQSLSRLEETVDETEDVVEIQKPQNHRRLPVDDQGKNRNRAPSSDPVDSSAPVVVDPNQYHAILKSKLELACAAVARRVGTVKPEDSSASASNQKQAQGSIVAQTSPGASSVRFSPTTSTQKKPDVPARQTSISSRDDSDDDDLDGDADNGDPTDVKRARRMLSNRESARRSRRRKQEQMNEFDTQVGQLRAEHSTLINRLSDMNHKYDAAAVDNRILRADIETLRTKVKMAEETVKRVTGVNPLHWSRPNMGIPFSNTPSASSSIPPNSNHILKPANSSTNTSAGLAQNQRVETANFLPEQVNREGMQNPFAPDSNLYETLPHWNHKH
B4: AtbZIP63 fused to the GAL4 activation domain (pAD-AtbZIP63) (protein, UniProt B9DGI8 1-314)
chain: MEKVFSDEEISGNHHWSVNGMTSLNRSASEWAFNRFIQESSAAADDGESTTACGVSVSSPPNVPVDSEEYRAFLKSKLNLACAAVAMKRGTFIKPQDTSGRSDNGGANESEQASLASSKATPMMSSAITSGSELSGDEEEADGETNMNPTNVKRVKRMLSNRESARRSRRRKQAHLSELETQVSQLRVENSKLMKGLTDVTQTFNDASVENRVLKANIETLRAKVKMAEETVKRLTGFNPMFHNMPQIVSTVSLPSETSNSPDTTSSQVTTPEIISSGNKGKALIGCKMNRTASMRRVESLEHLQKRIRSVGDQ
B5: AtbZIP10 expressed from pAUR123 (without GAL4 activation domain) (protein, UniProt O22763 1-411)
chain: MNSIFSIDDFSDPFWETPPIPLNPDSSKPVTADEVSQSQPEWTFEMFLEEISSSAVSSEPLGNNNNAIVGVSSAQSLPSVSGQNDFEDDSRFRDRDSGNLDCAAPMTTKTVIVDSDDYRRVLKNKLETECATVVSLRVGSVKPEDSTSSPETQLQPVQSSPLTQGELGVTSSLPAEVKKTGVSMKQVTSGSSREYSDDEDLDEENETTGSLKPEDVKKSRRMLSNRESARRSRRRKQEQTSDLETQVNDLKGEHSSLLKQLSNMNHKYDEAAVGNRILKADIETLRAKVKMAEETVKRVTGMNPMLLGRSSGHNNNNRMPITGNNRMDSSSIIPAYQPHSNLNHMSNQNIGIPTILPPRLGNNFAAPPSQTSSPLQRIRNGQNHHVTPSANPYGWNTEPQNDSAWPKKCVD
B6: AtbZIP25 expressed from pAUR123 (without GAL4 activation domain) (protein, UniProt Q9M1G6 1-403)
chain: MHIVFSVDDLTESFWPVPAPAPSPGSSSTPSPTQNVADGMTRSQSEWAFHRLINELSGSDSSPTTNTIERSPPPVQSLSRLEETVDETEDVVEIQKPQNHRRLPVDDQGKNRNRAPSSDPVDSSAPVVVDPNQYHAILKSKLELACAAVARRVGTVKPEDSSASASNQKQAQGSIVAQTSPGASSVRFSPTTSTQKKPDVPARQTSISSRDDSDDDDLDGDADNGDPTDVKRARRMLSNRESARRSRRRKQEQMNEFDTQVGQLRAEHSTLINRLSDMNHKYDAAAVDNRILRADIETLRTKVKMAEETVKRVTGVNPLHWSRPNMGIPFSNTPSASSSIPPNSNHILKPANSSTNTSAGLAQNQRVETANFLPEQVNREGMQNPFAPDSNLYETLPHWNHKH

Biological target: GmbZIP123 fused to the GAL4 DNA-binding domain (pBD-GmbZIP123) (soybean (Glycine max)) (UniProt Q0GPF9)
Assay: two-hybrid; GAL4 BD-GmbZIP123 with GAL4 AD fusions of Arabidopsis group C bZIP TFs in yeast strain YRG2; HIS3 reporter, growth on His-depleted medium; BD empty vector as negative control

binding, binds:
B1, B2, B3, B4

Biological target: GmbZIP123 fused to the GAL4 DNA-binding domain (pBD-GmbZIP123) (soybean (Glycine max)) (UniProt Q0GPF9)
Assay: two-hybrid; GAL4 BD-GmbZIP123 co-expressed with AtbZIP10 or AtbZIP25 from pAUR123 (no GAL4 AD) in yeast strain YRG2; HIS3 reporter, growth on SD/-His/-Trp medium; empty vector as control

binding, binds:
B5, B6
